From US20090123934A1 (published 2009)
These are yes or no findings as the source states them, for the method shown. Binding seen in cells or lysates may run through a third protein. Some entries that bind do so weakly or less than the wild type. For some assays here: Tags and fused reporters may be left off the sequences shown.

Assays:
[1] = biological target: T1, GFP-Polo (Drosophila melanogaster) (UniProt P52304); assay: co-immunoprecipitation (FIG. 12)
T1 sequence (looked up): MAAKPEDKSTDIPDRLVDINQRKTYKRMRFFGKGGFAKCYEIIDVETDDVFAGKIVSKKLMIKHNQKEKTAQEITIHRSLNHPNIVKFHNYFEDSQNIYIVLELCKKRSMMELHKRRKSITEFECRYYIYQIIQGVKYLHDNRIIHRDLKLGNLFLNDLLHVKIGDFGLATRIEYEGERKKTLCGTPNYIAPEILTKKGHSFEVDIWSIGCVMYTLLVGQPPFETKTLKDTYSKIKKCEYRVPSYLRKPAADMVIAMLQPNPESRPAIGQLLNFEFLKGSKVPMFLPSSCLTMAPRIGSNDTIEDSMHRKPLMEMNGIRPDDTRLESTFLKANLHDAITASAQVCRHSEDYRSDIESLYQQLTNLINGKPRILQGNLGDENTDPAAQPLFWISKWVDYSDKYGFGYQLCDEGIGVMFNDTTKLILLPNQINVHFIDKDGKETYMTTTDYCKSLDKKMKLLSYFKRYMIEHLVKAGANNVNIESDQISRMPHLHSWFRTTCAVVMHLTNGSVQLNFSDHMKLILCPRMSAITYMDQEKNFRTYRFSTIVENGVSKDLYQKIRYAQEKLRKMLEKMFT

Polo kinase (Polo) [2] = biological target: T2, Polo kinase (Polo) (Drosophila melanogaster, UniProt P52304 1-576, T182 detected as phosphorylated (over 80%) in Polo bound to Mtrm); assay: co-immunoprecipitation (FIG. 12)
T2 construct: Endogenous Polo in ovary extracts; also called polo (FBgn0003124)
T2 sequence (looked up): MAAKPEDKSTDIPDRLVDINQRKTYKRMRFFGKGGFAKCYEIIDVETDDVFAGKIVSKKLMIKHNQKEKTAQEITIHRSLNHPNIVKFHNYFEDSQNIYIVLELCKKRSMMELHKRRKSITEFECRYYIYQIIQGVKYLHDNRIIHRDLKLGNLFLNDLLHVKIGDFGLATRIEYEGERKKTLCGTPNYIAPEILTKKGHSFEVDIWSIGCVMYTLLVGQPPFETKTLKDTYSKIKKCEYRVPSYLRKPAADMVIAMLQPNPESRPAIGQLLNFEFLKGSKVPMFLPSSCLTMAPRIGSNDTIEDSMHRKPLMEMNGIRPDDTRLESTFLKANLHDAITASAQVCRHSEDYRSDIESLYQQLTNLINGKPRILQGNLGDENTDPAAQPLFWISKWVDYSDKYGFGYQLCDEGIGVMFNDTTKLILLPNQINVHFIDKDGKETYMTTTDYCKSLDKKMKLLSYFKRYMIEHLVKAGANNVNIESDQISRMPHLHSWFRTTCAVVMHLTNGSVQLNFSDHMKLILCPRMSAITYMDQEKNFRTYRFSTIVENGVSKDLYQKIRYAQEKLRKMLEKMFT

Polo kinase (Polo) [3] = biological target: T2, Polo kinase (Polo); assay: co-immunoprecipitation, Western blot (FIG. 4B)
[4] = biological target: T1, GFP-Polo (Drosophila melanogaster); assay: co-immunoprecipitation with anti-GFP antibody from ovary extracts of GFP-polo females
Polo kinase (Polo) [5] = biological target: T2, Polo kinase (Polo); assay: co-immunoprecipitation with monoclonal anti-Polo antibody from wild-type ovary extracts
Polo kinase (Polo) [6] = biological target: T2, Polo kinase (Polo); assay: co-immunoprecipitation from wild-type ovary extracts with polyclonal anti-Mtrm antibody
Polo kinase (Polo) [7] = biological target: T2, Polo kinase (Polo); assay: co-immunoprecipitation with anti-Mtrm antibodies, ovary extracts, mtrm null background

Measured: binding

B1: Matrimony (Mtrm) protein, wild-type (protein)
chain: MENSRTPTNKTKITLNRTPTLKERRWNTLKVNTSNVRCSTPIFGNFRSPNLSPIENMGTKGKSPVSPMRFATFKKVPTKVHPKQQQQQQHQHCHRTQLKPPPFVLPKPQEEIIEPEREIKSCSSPDTCSDDSNMETSLALESRRRSIKASNHSYVVNHAANVEQILMHMGLENYVTNFEEAHIDLVELASLERADLVKIGLNTDEDCNRIMDVLHTL
not listed: Polo kinase (Polo) [7]
binds: all other assays above

B2: Mtrm^S(124)A (protein)
chain: MENSRTPTNKTKITLNRTPTLKERRWNTLKVNTSNVRCSTPIFGNFRSPNLSPIENMGTKGKSPVSPMRFATFKKVPTKVHPKQQQQQQHQHCHRTQLKPPPFVLPKPQEEIIEPEREIKSCSAPDTCSDDSNMETSLALESRRRSIKASNHSYVVNHAANVEQILMHMGLENYVTNFEEAHIDLVELASLERADLVKIGLNTDEDCNRIMDVLHTL
binds: Polo kinase (Polo) [7] | Polo kinase (Polo) [3]
